For at least one entry, the source does not settle the construct or the ends of the probe.

The values that follow come from article PMC12646323.

This series concerns Mak16 (yeast His6-Mak16) + Rpf1-Δ58 del1-58. Kind of series: EMSA. As to conditions: [4Fe-4S] cluster, defined complex upon stoichiometric mixing, 0.8 µg ES7; 0.8 µg ES7, 5% nondenaturing acrylamide gel, GelRed then Coomassie stain; recombinant protein; probe letters rebuilt from the primers and the genome; part of a longer molecule.

“CAUUUGAUCAGACAUGGUGUUUUGUGCCCUCUGCUCCUUGUGGGUAGGGGAAUCUCGCAUUUCACUGGGCCAGCAUCAGUUUUGGUGGCAGGAUAAAUCCAUAGGAAUGUAGCUUGCCUCGGUAAGUAUUAUAGCCUGUGGGAAUACUGCCAGCUGGGACUGAGGACUGCGACGUAAGUCAAGGAUGCUGGCAUAAUGGUUAUAUGCC [ES7 RNA (25S rRNA expansion segment 7)]”: the binding result is “binds”.
